# Results of single-concentration screens

Data taken from ChEMBL document CHEMBL3988442, “University of Dundee, Small-Polar-MMV Screening Library” (2021).

Toxoplasma: 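Assay of Toxoplasma gondii numbers, read through their beta-galactosidase reporter with a colour substrate. Concentration: 10 µM. Higher reads as fewer parasites (inferred from which compounds were picked for retests). Size under these conditions: about 67,000 compounds, about 260 of them at 50% or above in at least one test.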
Leishmania in macrophages: 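Cell assay of Leishmania donovani living inside macrophages; the read-out is not stated. Compounds at 30 µM. Higher reads as stronger inhibition (inferred: compounds with an IC50 in retests scored well above the rest). About 69,000 compounds were tested under these conditions; 1.5% (about 1,000) showed 50% or more at least once.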

Each number is a percent effect as filed.
The record does not define 0% and 100%; most values in the screen are far below 50% and negative numbers occur (in some assays of this library far below -100).
This is an unselected part of the compounds tested.
Two or more numbers in one place are separate tests of the same structure; such repeats can differ widely.
A dash means the value is not listed here; it may have been measured.

structure | Toxoplasma | Leishmania in macrophages
CCn1c(NCc2ccco2)nc2c(C)nn(C)c2c1=O | 8.368 | 16.24
Cc1nccn1-c1cc(CNC(=O)CC2CCCO2)ccn1 (stereo not drawn) | -40.86 | -10.35
CN(Cc1cccnc1)CC1CC12CCN(c1nncs1)CC2.O=C(O)C(F)(F)F.O=C(O)C(F)(F)F.O=C(O)C(F)(F)F (stereo not drawn) | 23.12 | 16.84 and 23.48
CS(=O)(=O)c1ccc2c(c1)nc1n2[C@@H](CNCc2cccnc2)COC1 | -0.5405 | 19.16
Fc1ccc(N2CCN(CCCc3cn[nH]c3)CC2)cc1 | -11.37 | -16.59
O=C(Nc1cccnc1-n1cc(Br)cn1)C1CCCC1 | -3.971 | -6.687
Cc1ccc(CNCC2Cn3nnc(-c4cccc(F)c4)c3CO2)o1.O=C(O)C(F)(F)F (stereo not drawn) | 4.451 | 11.96
O=C(Nc1ccc(=O)n(Cc2ccccc2Cl)c1)C1CC1 | -20.7 | -9.348
COc1ccc2c(c1)OCC(CNc1cc(N)nc(SC)n1)C2 (stereo not drawn) | -10.13 | 52.24
O=C(O)C(F)(F)F.[H][C@@]12CN(c3ncc(C)cn3)C[C@@]1([H])N(CCN(C)C)C(=O)CO2 | 1.649 | 12.07
CC1=C(c2ccc(Cl)cc2)S(=O)(=O)N=C1N1CCc2ccccc21 | 8.516 | -23.49
O=C1CCC[C@]2(CN(S(=O)(=O)N3CCCCC3)C[C@H]2c2cccnc2)N1 | 23.58 | 11.71
O=C(O)C(F)(F)F.O=C1CC2(CCN(Cc3ccco3)C2)CN1c1ccc2c(c1)OCO2 (stereo not drawn) | 5.767 | 15.71
Cc1ccc(-c2noc(CN3CC(n4cc(C)cn4)C3)n2)cc1 | 23.95 | 16.62
COc1ccc(F)cc1C(=O)N1CCCC(n2nc(C)nc2C)C1 (stereo not drawn) | 4.632 | 14.78
[H][C@]12CC[C@]([H])(CN(C(=O)CCn3cc(Cl)cn3)C1)N(Cc1ccccn1)C2 | -6.028 | 11.1
CCCc1noc(CN2CCN(CCC(C)C)CC2)n1 | -10.03 | 9.394
COc1ccc(CCC(=O)N2CCNCC2C(=O)N2CCOCC2)cc1 (stereo not drawn) | -4.759 | 9.932
CC(C)(C)n1ncc2c1NC(=O)CC2c1ccsc1 (stereo not drawn) | -0.5515 | -16.14
CCC1COCCN1C(=O)CNC(=O)c1ccsc1 (stereo not drawn) | 1.129 | 25.05
COc1ccc(C2(C(=O)NC3CCc4nccn4C3)CCCC2)cc1 (stereo not drawn) | -0.2326 | 12.63
CCOc1cc([C@@H]2N[C@H](c3nccs3)Cc3ccsc32)ccc1OC | 12.38 | -25.37
Cc1cc(C)n(NC(=O)c2cccc3c2OCC3)c(=O)c1 | 8.66 | 20.44
Cc1cc(C)n(CC2CCCN2Cc2nc(N)c3ccccc3n2)n1 (stereo not drawn) | -8.66 | 47
Cc1ccc2c(C)c(C(=O)NCc3csc(N)n3)oc2c1 | -5.347 | 19.74
CCC(CO)NCc1ccc(-c2ccc(Br)cc2)o1.Cl (stereo not drawn) | 3.927 | 86.07
Cc1ccccc1OCC(=O)N1CCN(C2CCOC2=O)CC1 (stereo not drawn) | 1.687 | 15.32
CNC(=O)c1c(C)cccc1NCc1nnc(C2CC2)o1 | -2.599 | 34.13
O=C(NCCN1CCCC(CO)C1)c1ccc2sccc2c1 (stereo not drawn) | -15.36 | -1.633
CC(C)c1noc(C(C)N2CCC(c3nc4ccccc4o3)CC2)n1 (stereo not drawn) | 8.737 | -7.668
Cc1ccc(N2CC[C@@H](NC(=O)c3cnccn3)[C@H](O)C2)nn1 | -12.37 | 14.2
NC(=O)CN1CCc2c(Br)ccc(F)c2C1 | 4.475 | 11.2
CN1CCN(C(=O)C2CN(Cc3cc4ccccc4o3)CCN2)CC1 (stereo not drawn) | -7.615 | 6.799
Cc1ccc(C)c(CS(=O)(=O)CC(=O)Nc2ccc(F)cc2F)c1 | -9.422 | -1.296
CN(C)Cc1csc(-c2nccn2Cc2ccsc2)c1 | 5.118 | 10.58
CC(O)C1CCN(Cc2cnc3c(-c4ccccc4)cnn3c2)CC1 (stereo not drawn) | 10.87 | 11.03
O=C(O)C(F)(F)F.[H][C@@]12COC[C@]1(CNC(=O)COC)CN(Cc1ccc3c(c1)OCO3)C2 | 5.973 | 31.38
NC(=O)c1cccc(CS(=O)(=O)CC(O)Cn2cccn2)c1 (stereo not drawn) | -7.615 | 7.321
[H][C@@]12OCCN(C(=O)COc3ccccc3)[C@@]1([H])CC[C@@H]2OCC | -9.684 | 7.429
O=C(O)C(F)(F)F.[H][C@@]12COC[C@]1(CNS(=O)(=O)CC)CN(Cc1cccc(OC)c1)C2 | 2.098 | 29.62
COC(=O)c1cc(NCc2cscn2)ccc1C | -3.433 | 24.65
CC(C)(C)NC(=O)C1CSCN1S(=O)(=O)c1ccccc1F (stereo not drawn) | 4.485 | -3.758
Cc1nn(C)c(N(C)C)c1CNCc1ccccc1Cn1cncn1 | 4.556 | 20.9
Cc1cc(NCCc2nc(C)cs2)nc(-c2cccnc2)n1 | 8.829 | 5.871
COc1ccc(C(=O)N2CCCS2(=O)=O)cc1 | 6.147 | -11.49
O=C(O)C(F)(F)F.[H][C@@]12CO[C@@H](CNC(=O)c3nccn3C)[C@]1([H])CCN(CCC)C2 | -9.269 | 42.84
CC(C)N(C)C(=O)c1coc(CN2CCN(c3ccccc3F)CC2)n1 | - | 20.95
O=S(=O)(CCN1CCN(c2ccccc2O)CC1)c1ccc(Br)cc1 | -7.241 | 36.48
Cc1cc(N2CCC(NCCOc3ccccc3)CC2)nc(C)n1 | 24.63 | 53.39
CN(C)c1nc2c(c(N3CCc4c(c(CO)nn4C)C3)n1)CCNC2 | 28.16 | 11.17
Cc1cc(=O)[nH]c(-n2nc(-c3ccccc3)cc2N)n1 | -4.066 | 15.58
CC1CCc2nc(O)c(C(=O)NCCCN3CCN(C)CC3)cc2C1 (stereo not drawn) | -5.102 | 27.76
Cc1nsc(NC2CC(=O)N(C(C)(C)C)C2)n1 (stereo not drawn) | -4.811 | -15.37
[H][C@]12CCNCC[C@@]1([H])S(=O)(=O)N(Cc1cccc(OC)c1)C2 | 15.56 | -7.405 and -10.7
CS(=O)(=O)NCCC(=O)NCc1cccnc1-n1cnc2ccccc21 | 3.973 | 12.04
COc1cc2nc3n(c(=O)c2cc1OC)CCN(C(=O)C(C)(C)C)CC3 | -9.796 | 8.138 and 1.817
CN(C)CCN1C(=O)CCCC12CCCN(C(=O)c1ccncc1)C2.O=C(O)C(F)(F)F.O=C(O)C(F)(F)F (stereo not drawn) | -16.58 | 1.774
COc1c(C)cnc(CN2CCOC(Cn3nc(C)nc3C)C2)c1C (stereo not drawn) | - | 40.83
O=C(O)C(F)(F)F.O=C(O)C(F)(F)F.[H][C@@]12COC[C@@H](CC(=O)N3CCOCC3)[C@]1([H])CN(Cc1ccncc1)C2 | -3.586 | 5.728
Cn1nccc1CCC(=O)NC1CCCN(c2ccccn2)C1 (stereo not drawn) | 4.039 | 21.53
O=C1NC2(CCN(C(=O)c3ccnnc3)CC2)CC1c1ccccc1 (stereo not drawn) | 11.82 | 21.04
[H][C@]12CC[C@@H](N(C)c3cccnn3)[C@@]1([H])CN(Cc1ccccc1C(=O)O)C2 | -0.1324 | 7.595
CN(CC1(CO)CCC1)C(=O)c1cc(COc2ccccc2F)[nH]n1 | 2.359 | -17.63
COc1ccc(OC)c([C@@H]2N[C@H](c3nccs3)Cc3ccsc32)c1 | 18.21 | -21.11
O=C(c1ccn(-c2cccc(F)c2)n1)N1CCCC(n2cccn2)C1 (stereo not drawn) | -0.6497 | 37.09
CCN(CC)S(=O)(=O)c1ccc(OC)c(NC(=O)CSC)c1 | 2.126 | 10.09
CC(=O)NCC(Cc1cccc(F)c1)n1cccc1 (stereo not drawn) | 22.39 | 3.409 and 6.145
CCc1ncc2c(n1)CN(Cc1cn3ccsc3n1)CC2 | 6.008 | 29.01
CCOC(=O)CCn1cnc2onc(-c3cc(OC)ccc3Cl)c2c1=O | 13.31 | 10.75 and 2.018

7 of the entries, repeated:

With CN(C)c1nc2c(c(N3CCc4c(c(CO)nn4C)C3)n1)CCNC2 the screen gave Toxoplasma: 28.16%; Leishmania in macrophages: 11.17%.
With Cc1cc(C)n(CC2CCCN2Cc2nc(N)c3ccccc3n2)n1 (stereo not drawn) the screen gave Toxoplasma: -8.66%; Leishmania in macrophages: 47%.
With Cc1ccc2c(C)c(C(=O)NCc3csc(N)n3)oc2c1 the screen gave Toxoplasma: -5.347%; Leishmania in macrophages: 19.74%.
With Cc1cc(NCCc2nc(C)cs2)nc(-c2cccnc2)n1 the screen gave Toxoplasma: 8.829%; Leishmania in macrophages: 5.871%.
With CN(Cc1cccnc1)CC1CC12CCN(c1nncs1)CC2.O=C(O)C(F)(F)F.O=C(O)C(F)(F)F.O=C(O)C(F)(F)F (stereo not drawn) the screen gave Toxoplasma: 23.12%; Leishmania in macrophages: 16.84% and 23.48%.
With O=C(c1ccn(-c2cccc(F)c2)n1)N1CCCC(n2cccn2)C1 (stereo not drawn) the screen gave Toxoplasma: -0.6497%; Leishmania in macrophages: 37.09%.
With CS(=O)(=O)c1ccc2c(c1)nc1n2[C@@H](CNCc2cccnc2)COC1 the screen gave Toxoplasma: -0.5405%; Leishmania in macrophages: 19.16%.